Experimental data as given in PubChem BioAssay AID1688 (National Center for Advancing Translational Sciences (NCATS), 2009).
The whole screen tested about 220,000 compounds, of which about 2,400 (1.1%) were called active. Inconclusive results, whose numbers are uncertain, are shown with a selection of clear calls. Calls follow the shape of the dose curve; as a rule, active = well fitted inhibition curve with a large enough effect; inconclusive = small, poorly fitted or top-dose-only effect, or effect the other way; inactive = no such curve, though single readings can be large or run the other way. Potencies beside an inconclusive call are fits to weak or partial responses and may not hold up.

Experiment: qHTS Multiplex Assay to Identify Dual Action Probes in a Cell Model of Huntington: Aggregate Formation (GFP); also: nearly all actives have a fitted effect of over 60% in size
Details: PC12 HttQ103-GFP aggregates, Acumen cytometry, 40 h; activity change, negative = inhibition: at 46.1 µM (top of the series) unless noted
Procedure, shortened: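 Read-out: GFP aggregate count by laser scanning cytometer (488 nm excitation, 500-530 nm emission, 1–25 µm objects >6 SD above background). Cells: PC12, inducible HTTex1-Q103-GFP, 100 nM tebufenozide; compounds titrated.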
% is scaled to controls: 0 for no effect and ±100 for the full control effect; potency is read from the fitted curve at half-maximal effect.

| SMILES | Potency | activity change, negative = inhibition |
| --- | --- | --- |
| Cc1nc2ncnn2c(N2CCN(c3cccc(C(F)(F)F)c3)CC2)c1C | inconclusive: 35.5 µM [inhibitor, single point] |  |
| CC(=Nc1ccc(O)cc1)c1sc2ccccc2c1O | inconclusive: 5.62 µM [inhibitor, single point] |  |
| O=C(Oc1c(CN2CCOCC2)cc(Cl)c2cccnc12)c1ccccc1Cl | inconclusive: 7.94 µM [inhibitor, partial curve] |  |
| CN(CCn1ccnc1)C(=O)CC1C(=O)NCCN1Cc1ccccc1C(F)(F)F (configuration not stated) | inconclusive: 3.98 µM [inhibitor, single point] |  |
| O=c1oc2ccccc2c(Nc2ccc3ncccc3c2)c1[N+](=O)[O-] | inconclusive: 35.5 µM [activator, single point] |  |
| Cc1ccc(/C(O)=C2/C(=O)C(=O)N(CCN3CCOCC3)C2c2ccccn2)cc1 (configuration not stated) | inconclusive: 5.01 µM [inhibitor, single point] |  |
| COc1cc2c(cc1OC)C(c1ccc(-c3ccc(Cl)c(Cl)c3)o1)=NCC2 | active: 8.91 µM |  |
| COc1ccccc1CNc1ccc(N2CCCCC2)cc1 | inconclusive: 14.1 µM [activator, single point] |  |
| O=C(COC(=O)C1(c2ccccc2F)CCCC1)Nc1ncc(C(F)(F)F)cc1Cl |  | inactive: -2.1% |
| NS(=O)(=O)c1ccc(NCc2ccccc2OCc2ccc(F)cc2)cc1 | inconclusive: 11.2 µM [inhibitor, single point] |  |
| Fc1ccc2nc(-c3ccccc3)nc(SCc3nnc(-c4ccccc4)o3)c2c1 | inconclusive: 1.26 µM [activator, single point] |  |
| O=C(NCc1cccs1)C1CCCN1C(=O)Nc1ccccc1 (configuration not stated) | inconclusive: 35.5 µM [inhibitor, single point] |  |
| COc1cc([N+](=O)[O-])ccc1NC(=O)CCCOc1cccc(C)c1C |  | inactive: -2.59% |
| COc1ccc(OC)c(Nc2nc(-c3sc(NC(=O)C(C)(C)C)nc3C)cs2)c1 | inconclusive: 11.2 µM [inhibitor, partial curve] |  |
| c1ccc(Cn2ccnc2SCc2nnc(-c3ccccc3)o2)cc1 | inconclusive: 35.5 µM [inhibitor, single point] |  |
| O=S(=O)(NC1CCCC1)c1cccc(S(=O)(=O)N2CCC(n3nnc4ccccc43)CC2)c1 | inconclusive: 8.91 µM [inhibitor, partial curve, poor fit] |  |
| Cc1ccc(-c2noc(CCC(=O)NC3CCN(Cc4ccccc4)CC3)n2)cc1 | inconclusive: 11.2 µM [inhibitor, single point] |  |
| O=C(Nc1ccc(Cl)cc1)c1cccs1 | inconclusive: 17.8 µM [inhibitor, partial curve] |  |
| COc1ccc(C(=O)NC(=S)Nc2cccnc2)cc1[N+](=O)[O-] | inconclusive: 35.5 µM [activator, single point] |  |
| Cc1ccccc1Nc1nnc(SCC(=O)Nc2ccccc2[N+](=O)[O-])s1 | inconclusive: 5.62 µM [inhibitor, single point] |  |
| Cn1cc(C(=O)N/N=C/C=C/c2ccccc2)ccc1=O | inconclusive: 35.5 µM [activator, single point] |  |

| SMILES | Potency | activity change, negative = inhibition |
| --- | --- | --- |
| CC(=O)OC1CCC2(C)C(COc3ccc4ccc(=O)oc4c3)C(C)(O)CCC2C1(C)C (configuration not stated) |  | inactive: -11.3% |
| COc1ccc(-c2nc(-c3ccccc3)c(-c3cccs3)[nH]2)cc1OC | inconclusive: 35.5 µM [inhibitor, single point] |  |
| N#CC(C#N)=C1C=CC=CN1/C(=C\c1ccco1)C(=O)c1ccc(Cl)cc1 | active: 3.55 µM |  |
| CCc1ccc(Nc2nnc(SCC(=O)Nc3cccnc3Cl)s2)cc1 | inconclusive: 20 µM [inhibitor, single point] |  |
| CCCN1CCN(CCCNC(=O)c2cc3c(=O)[nH]c4ccccc4c3s2)CC1 |  | inactive: -21% |
| Cc1cccc(NC(=O)c2ccc(OCC(=O)NCc3ccccc3)cc2)c1C | inconclusive: 0.562 µM [activator, full curve, poor fit] |  |
| O=S(=O)(c1ccc(Br)cc1)c1cnc2ccccc2n1 | inconclusive: 15.8 µM [inhibitor, single point] |  |
| O=S(=O)(NCC1CCCO1)c1ccc(-c2ccc(Cl)cc2)cc1 (configuration not stated) | inconclusive: 11.2 µM [inhibitor, single point] |  |
| CN1CCN(CCCNC(=O)c2cc3c(-c4ccc(Cl)cc4)nn(C)c3s2)CC1 | inconclusive: 12.6 µM [activator, single point] |  |
| COc1ccccc1N1CCN(C(=O)CCCn2c(=O)[nH]c3ccsc3c2=O)CC1 |  | inactive: -11.8% |
| CCCC1CC(C)(c2csc(Nc3ccc(OCC)cc3)n2)OC1=O (configuration not stated) | inconclusive: 17.8 µM [inhibitor, single point] |  |
| Cc1ccc(C(=O)n2c3ccccc3c3ccccc32)cc1 | inconclusive: 35.5 µM [inhibitor, single point] |  |
| O=C(c1cccnc1)N1N=C(C2CC2)CC1(O)C(F)(F)F (configuration not stated) | inconclusive: 0.891 µM [inhibitor, single point] |  |
| Cc1c(/C=N/NC(=O)c2ccc3c(c2)OCO3)cnn1C | inconclusive: 5.01 µM [activator, partial curve] |  |
| CC1CN(S(=O)(=O)c2ccc(C(=O)NCCCn3ccnc3)cc2)CC(C)O1 (configuration not stated) | inconclusive: 14.1 µM [inhibitor, partial curve, poor fit] |  |
| O=C(Cc1ccccc1)Nc1ccccc1N1CCN(c2ccccc2)CC1 | inconclusive: 35.5 µM [inhibitor, single point] |  |
| CC(C)COC(=O)c1ccc2c(c1O)C(=O)c1ccccc1C2=O | inconclusive: 20 µM [inhibitor, single point] |  |
| CC1=NN(c2nc(-c3ccc(Cl)cc3)cs2)C(=O)C1 | inconclusive: 35.5 µM [inhibitor, single point] |  |
| CC(C)(C)CC(C)(C)NC(=O)CSCC(=O)Nc1ccc2ccccc2c1 | inconclusive: 35.5 µM [inhibitor, single point] |  |
| CC(=O)c1ccc(Sc2nnc(C)s2)c([N+](=O)[O-])c1 |  | inactive: 15.8% [at 9.22 µM] |
| CCN(CC)S(=O)(=O)c1ccc(NC(=S)NC(=O)C(C)C)cc1 |  | inactive: 0.873% |
